The other results are listed elsewhere or left out.
Experiments:
Test in all cases: log2 fold change, soluble protein after heating vs DMSO (PISA); higher = thermal stabilisation; K562 cells, 10 uM, 30 min; active = over 0.2 and 3.5 SD of the protein, either way, in both replicates (recomputed)
[1] = compound: COC1=CC=C(C=C1)CN2C=CC3=C2C=C(C=C3)C(=O)NO
Method in brief: (§1)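 K562 cells at 2×10^6 cells/mL were given 10 μM compound for 30 min. Aliquots then went through 3 min of heating across 48°C-58°C, were pooled, and were extracted in PBS with 0.5% NP-40 at 4°C, and the supernatant after 21,000xg for 90 min was quantified by TMTpro 16plex LC-MS/MS with channel sums equalised. Thermal stability relative to control samples, from duplicates, is given as log2 fold change.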

Protein sequences, listed by entry. Tags and fused reporters are not part of them. Lines headed by an entry give the natural chain unless they say otherwise; changes in a name come on top.
UniProt P47756, whole entry, looked up: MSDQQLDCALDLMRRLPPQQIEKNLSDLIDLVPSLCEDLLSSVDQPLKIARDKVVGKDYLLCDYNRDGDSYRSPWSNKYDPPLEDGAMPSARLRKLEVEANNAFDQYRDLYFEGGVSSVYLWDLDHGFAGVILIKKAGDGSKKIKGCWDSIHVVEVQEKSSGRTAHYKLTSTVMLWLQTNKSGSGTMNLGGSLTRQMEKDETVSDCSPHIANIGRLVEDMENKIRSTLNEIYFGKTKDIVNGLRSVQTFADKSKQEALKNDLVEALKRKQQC
UniProt O43683: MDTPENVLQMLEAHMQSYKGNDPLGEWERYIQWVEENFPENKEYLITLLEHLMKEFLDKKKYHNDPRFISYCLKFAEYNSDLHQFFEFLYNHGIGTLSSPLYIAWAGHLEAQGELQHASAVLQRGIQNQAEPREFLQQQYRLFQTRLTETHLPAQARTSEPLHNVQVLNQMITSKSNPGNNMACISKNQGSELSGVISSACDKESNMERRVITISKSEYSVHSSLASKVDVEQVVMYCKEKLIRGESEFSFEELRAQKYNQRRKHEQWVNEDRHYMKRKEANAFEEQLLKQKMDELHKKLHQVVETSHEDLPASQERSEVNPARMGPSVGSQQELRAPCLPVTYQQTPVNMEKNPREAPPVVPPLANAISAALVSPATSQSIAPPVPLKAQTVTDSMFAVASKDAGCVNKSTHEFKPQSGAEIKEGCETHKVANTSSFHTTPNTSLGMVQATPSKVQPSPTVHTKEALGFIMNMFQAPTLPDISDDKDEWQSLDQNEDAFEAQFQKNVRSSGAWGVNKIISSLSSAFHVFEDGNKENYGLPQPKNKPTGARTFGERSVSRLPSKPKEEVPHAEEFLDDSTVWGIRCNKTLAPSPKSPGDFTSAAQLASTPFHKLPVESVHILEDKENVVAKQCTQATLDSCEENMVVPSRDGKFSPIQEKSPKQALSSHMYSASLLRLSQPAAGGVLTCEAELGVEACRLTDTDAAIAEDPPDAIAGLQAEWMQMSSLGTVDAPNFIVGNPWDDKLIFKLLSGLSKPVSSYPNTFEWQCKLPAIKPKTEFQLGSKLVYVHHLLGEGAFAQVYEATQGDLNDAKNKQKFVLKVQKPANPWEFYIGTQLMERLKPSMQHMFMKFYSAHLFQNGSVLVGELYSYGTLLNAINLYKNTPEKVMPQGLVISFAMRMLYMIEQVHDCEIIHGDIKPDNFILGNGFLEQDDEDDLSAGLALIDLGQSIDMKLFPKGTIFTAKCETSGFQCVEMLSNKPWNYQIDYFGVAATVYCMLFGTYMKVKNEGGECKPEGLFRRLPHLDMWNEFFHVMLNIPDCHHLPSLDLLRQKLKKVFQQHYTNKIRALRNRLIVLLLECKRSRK
UniProt P04632: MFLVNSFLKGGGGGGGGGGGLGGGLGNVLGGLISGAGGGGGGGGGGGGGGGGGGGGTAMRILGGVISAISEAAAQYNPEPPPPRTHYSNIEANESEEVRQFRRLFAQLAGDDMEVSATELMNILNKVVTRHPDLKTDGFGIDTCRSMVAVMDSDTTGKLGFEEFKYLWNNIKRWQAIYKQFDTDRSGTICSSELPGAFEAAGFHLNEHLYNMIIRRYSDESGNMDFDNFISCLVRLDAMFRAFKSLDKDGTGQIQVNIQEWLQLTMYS
UniProt Q8WUQ7: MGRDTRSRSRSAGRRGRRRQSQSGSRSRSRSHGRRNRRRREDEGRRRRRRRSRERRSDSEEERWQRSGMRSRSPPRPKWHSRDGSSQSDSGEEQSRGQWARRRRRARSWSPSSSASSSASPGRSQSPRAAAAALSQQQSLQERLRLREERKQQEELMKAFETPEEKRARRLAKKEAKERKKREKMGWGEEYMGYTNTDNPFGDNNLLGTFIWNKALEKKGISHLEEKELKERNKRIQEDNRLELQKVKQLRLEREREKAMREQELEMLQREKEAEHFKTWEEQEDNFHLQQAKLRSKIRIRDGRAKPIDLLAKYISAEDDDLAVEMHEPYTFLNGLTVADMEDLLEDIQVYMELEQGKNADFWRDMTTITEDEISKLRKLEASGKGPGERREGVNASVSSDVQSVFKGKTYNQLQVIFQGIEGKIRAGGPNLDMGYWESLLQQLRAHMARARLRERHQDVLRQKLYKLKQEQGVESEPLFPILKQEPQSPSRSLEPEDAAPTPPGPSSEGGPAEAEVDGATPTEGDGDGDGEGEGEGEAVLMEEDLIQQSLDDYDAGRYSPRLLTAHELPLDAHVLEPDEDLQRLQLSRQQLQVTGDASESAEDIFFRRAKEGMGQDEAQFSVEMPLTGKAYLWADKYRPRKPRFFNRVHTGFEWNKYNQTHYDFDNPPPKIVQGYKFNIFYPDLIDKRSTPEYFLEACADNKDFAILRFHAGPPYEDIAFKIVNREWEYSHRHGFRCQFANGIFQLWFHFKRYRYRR
UniProt P05937: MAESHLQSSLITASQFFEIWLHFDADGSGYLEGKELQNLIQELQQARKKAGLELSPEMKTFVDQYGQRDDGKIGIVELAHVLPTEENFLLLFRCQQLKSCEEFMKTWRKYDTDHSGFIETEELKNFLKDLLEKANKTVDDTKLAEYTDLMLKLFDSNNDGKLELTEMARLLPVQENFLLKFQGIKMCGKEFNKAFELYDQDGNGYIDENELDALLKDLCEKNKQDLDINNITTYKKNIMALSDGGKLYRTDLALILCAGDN
UniProt Q96B23: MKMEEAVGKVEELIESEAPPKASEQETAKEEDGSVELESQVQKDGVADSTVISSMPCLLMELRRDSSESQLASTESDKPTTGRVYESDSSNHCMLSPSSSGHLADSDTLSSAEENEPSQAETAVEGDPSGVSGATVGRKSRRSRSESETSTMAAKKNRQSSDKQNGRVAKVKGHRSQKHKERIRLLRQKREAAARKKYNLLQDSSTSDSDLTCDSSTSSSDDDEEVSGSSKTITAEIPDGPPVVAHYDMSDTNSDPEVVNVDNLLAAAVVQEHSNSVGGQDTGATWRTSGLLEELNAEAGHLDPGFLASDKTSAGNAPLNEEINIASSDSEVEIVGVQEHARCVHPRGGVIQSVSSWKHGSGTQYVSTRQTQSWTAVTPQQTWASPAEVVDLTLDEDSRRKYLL
UniProt Q13555: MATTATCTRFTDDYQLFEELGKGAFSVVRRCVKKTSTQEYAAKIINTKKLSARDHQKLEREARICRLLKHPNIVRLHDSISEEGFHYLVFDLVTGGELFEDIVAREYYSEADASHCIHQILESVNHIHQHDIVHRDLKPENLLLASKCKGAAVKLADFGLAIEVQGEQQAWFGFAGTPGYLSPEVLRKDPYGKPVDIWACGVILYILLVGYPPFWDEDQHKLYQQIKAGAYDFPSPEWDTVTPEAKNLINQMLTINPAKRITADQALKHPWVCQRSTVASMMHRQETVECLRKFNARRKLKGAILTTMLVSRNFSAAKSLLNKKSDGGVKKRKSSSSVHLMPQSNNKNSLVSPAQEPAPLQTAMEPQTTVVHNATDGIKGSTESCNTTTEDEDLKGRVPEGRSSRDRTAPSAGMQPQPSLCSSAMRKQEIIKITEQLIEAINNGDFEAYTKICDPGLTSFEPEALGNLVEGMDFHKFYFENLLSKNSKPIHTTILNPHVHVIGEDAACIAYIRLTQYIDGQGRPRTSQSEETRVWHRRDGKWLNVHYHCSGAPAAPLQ
UniProt P35613: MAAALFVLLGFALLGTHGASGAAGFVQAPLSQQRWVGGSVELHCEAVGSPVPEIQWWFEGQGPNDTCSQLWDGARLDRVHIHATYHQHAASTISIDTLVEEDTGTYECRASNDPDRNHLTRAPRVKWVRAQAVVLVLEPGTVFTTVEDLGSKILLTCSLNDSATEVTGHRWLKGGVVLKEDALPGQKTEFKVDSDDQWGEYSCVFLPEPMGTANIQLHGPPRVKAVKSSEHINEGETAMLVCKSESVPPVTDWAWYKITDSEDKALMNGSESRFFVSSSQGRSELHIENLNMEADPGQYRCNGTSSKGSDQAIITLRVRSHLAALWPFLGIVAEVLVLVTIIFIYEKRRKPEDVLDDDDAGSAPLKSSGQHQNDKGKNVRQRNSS
UniProt Q06187: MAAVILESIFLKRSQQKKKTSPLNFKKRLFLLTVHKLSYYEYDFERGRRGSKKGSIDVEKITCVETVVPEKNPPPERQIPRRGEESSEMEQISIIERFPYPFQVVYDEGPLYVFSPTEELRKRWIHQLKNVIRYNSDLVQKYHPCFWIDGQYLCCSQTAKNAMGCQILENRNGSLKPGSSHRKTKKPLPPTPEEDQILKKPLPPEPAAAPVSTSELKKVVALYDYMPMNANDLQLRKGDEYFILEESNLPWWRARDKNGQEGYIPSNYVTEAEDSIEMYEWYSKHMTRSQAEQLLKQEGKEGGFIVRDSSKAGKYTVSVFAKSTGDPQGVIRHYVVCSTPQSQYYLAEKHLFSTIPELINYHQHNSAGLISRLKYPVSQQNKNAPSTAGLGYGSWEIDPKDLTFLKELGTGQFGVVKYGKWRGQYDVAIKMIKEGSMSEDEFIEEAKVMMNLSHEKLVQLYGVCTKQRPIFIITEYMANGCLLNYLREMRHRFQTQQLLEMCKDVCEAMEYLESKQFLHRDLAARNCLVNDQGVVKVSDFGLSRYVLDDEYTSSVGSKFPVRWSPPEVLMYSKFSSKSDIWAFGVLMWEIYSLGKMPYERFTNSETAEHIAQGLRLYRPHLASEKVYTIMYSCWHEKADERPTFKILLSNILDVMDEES
UniProt Q9NZ63: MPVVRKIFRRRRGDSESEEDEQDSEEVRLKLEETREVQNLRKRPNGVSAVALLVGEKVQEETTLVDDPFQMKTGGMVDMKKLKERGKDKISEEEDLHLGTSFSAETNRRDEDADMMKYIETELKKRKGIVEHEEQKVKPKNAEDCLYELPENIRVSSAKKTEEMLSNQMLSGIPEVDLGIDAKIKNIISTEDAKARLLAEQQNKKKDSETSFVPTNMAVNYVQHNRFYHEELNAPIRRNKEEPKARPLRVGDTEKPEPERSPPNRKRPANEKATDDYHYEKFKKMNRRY
UniProt O14523: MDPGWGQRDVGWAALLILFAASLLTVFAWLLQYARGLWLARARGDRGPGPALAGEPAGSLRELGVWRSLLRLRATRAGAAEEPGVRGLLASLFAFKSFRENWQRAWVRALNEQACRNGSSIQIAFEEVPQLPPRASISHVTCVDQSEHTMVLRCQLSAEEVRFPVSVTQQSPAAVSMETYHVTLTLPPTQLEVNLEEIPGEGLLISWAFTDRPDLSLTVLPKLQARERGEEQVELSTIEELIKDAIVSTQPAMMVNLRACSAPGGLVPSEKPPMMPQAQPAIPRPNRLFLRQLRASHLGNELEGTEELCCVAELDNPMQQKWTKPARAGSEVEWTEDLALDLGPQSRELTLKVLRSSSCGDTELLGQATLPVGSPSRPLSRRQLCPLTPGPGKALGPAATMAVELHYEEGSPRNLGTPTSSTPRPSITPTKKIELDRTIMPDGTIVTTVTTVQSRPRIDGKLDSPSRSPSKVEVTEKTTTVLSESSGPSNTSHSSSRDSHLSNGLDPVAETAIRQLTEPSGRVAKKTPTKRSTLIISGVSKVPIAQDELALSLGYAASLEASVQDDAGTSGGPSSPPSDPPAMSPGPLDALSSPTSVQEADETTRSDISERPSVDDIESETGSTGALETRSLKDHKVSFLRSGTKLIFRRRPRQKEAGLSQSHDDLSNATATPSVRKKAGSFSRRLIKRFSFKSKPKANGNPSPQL
UniProt Q8N8R5: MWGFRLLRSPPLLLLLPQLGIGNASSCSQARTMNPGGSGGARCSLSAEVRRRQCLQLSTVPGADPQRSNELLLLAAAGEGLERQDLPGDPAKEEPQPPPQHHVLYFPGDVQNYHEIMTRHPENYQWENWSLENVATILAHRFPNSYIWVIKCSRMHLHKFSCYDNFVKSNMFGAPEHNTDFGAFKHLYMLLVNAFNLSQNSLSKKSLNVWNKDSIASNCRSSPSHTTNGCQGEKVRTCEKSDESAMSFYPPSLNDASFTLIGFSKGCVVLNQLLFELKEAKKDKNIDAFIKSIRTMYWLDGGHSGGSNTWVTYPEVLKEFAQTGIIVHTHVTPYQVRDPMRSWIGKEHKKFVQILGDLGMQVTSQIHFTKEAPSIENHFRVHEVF
UniProt Q96K31: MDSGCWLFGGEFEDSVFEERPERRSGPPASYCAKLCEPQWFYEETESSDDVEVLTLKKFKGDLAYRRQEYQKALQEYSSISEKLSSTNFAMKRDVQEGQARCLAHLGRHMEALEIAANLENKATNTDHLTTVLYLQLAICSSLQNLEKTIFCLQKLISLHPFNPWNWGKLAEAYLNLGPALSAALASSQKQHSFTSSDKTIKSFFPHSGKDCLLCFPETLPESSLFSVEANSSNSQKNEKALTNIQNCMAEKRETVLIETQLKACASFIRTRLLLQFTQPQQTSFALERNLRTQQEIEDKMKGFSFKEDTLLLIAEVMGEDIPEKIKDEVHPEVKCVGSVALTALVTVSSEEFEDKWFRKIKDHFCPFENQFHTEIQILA
UniProt Q9UFG5: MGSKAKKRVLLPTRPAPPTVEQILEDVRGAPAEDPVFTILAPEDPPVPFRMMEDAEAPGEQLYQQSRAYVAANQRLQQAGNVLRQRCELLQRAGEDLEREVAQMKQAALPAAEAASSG

[2] = compound: CON(C)C(=O)N1N=C(c2cc(F)ccc2F)S[C@@]1(CCCN)c1ccccc1 [filanesib]
Method in brief: as §1

[3] = compound: CO[C@H]1C[C@@H]2CC[C@@H](C)[C@@](O)(O2)C(=O)C(=O)N2CCCC[C@H]2C(=O)O[C@H]([C@H](C)C[C@@H]2CC[C@H](n3cnnn3)[C@H](OC)C2)CC(=O)[C@H](C)/C=C(\C)[C@@H](O)[C@@H](OC)C(=O)[C@H](C)C[C@H](C)/C=C/C=C/C=C/1C [zotarolimus]
Method in brief: as §1

[4] = compound: COc1cc(C(=O)O)ccc1NC(=O)[C@@H]1N[C@@H](CC(C)(C)C)[C@](C#N)(c2ccc(Cl)cc2F)[C@H]1c1cccc(Cl)c1F [idasanutlin]
Method in brief: as §1

[5] = compound: COc1cc(Nc2ncc3c(n2)-c2ccc(Cl)cc2C(c2c(F)cccc2OC)=NC3)ccc1C(=O)O [alisertib]
Method in brief: as §1

[6] = compound: COc1cc2nc(-c3cc(F)ccc3O)nc(N[C@@H]3CNC[C@H]3C(C)(C)O)c2cc1OC
Method in brief: as §1

[7] = compound: COc1cc2ncnc(Nc3ccc(F)c(Cl)c3)c2cc1OCCCN1CCOCC1 [gefitinib]
Method in brief: as §1

[8] = compound: COc1cccc2cc(-c3nc([C@H]4CC[C@H](C(=O)O)CC4)n4ncnc(N)c34)[nH]c12
Method in brief: as §1

[9] = compound: CS(=O)(=O)CCNCc1ccc(-c2ccc3ncnc(Nc4ccc(OCc5cccc(F)c5)c(Cl)c4)c3c2)o1 [lapatinib]
Method in brief: as §1

[10] = compound: CS(=O)(=O)N1CCN(Cc2cc3nc(-c4cccc5[nH]ncc45)nc(N4CCOCC4)c3s2)CC1 [pictilisib]
Method in brief: as §1

Measured: log2 fold change

CAPZB isoform 2 (UniProt P47756)
inactive: [1] -0.02 | [2] -0.034 | [3] -0.006 | [4] -0.019 | [5] -0.048 | [6] 0.048 | [7] 0.008 | [8] -0.037 | [9] 0.009 | [10] -0.018

BUB1 (UniProt O43683)
inactive: [1] -0.174 | [2] 0.013 | [3] -0.123 | [4] -0.09 | [5] -0.023 | [6] 0.167 | [7] 0.044 | [8] 0.056 | [9] -0.182 | [10] 0.185

CAPNS1 (UniProt P04632)
inactive: [1] -0.063 | [2] -0.017 | [3] -0.026 | [4] -0.039 | [5] 0.017 | [6] -0.002 | [7] 0.023 | [8] 0.054 | [9] 0.012 | [10] 0.084

CACTIN isoform 2 (UniProt Q8WUQ7)
inactive: [1] 0.148 | [2] 0.088 | [3] -0.082 | [4] 0.135 | [5] 0.009 | [6] 0.002 | [7] -0.124 | [8] 0.146 | [9] 0.016 | [10] 0.049

CALB1 (UniProt P05937)
inactive: [1] 0.029 | [2] -0.192 | [3] 0.006 | [4] -0.024 | [5] -0.022 | [6] -0.071 | [7] -0.024 | [8] 0.015 | [9] 0.013 | [10] 0.027

C18orf25 isoform 2 (UniProt Q96B23)
inactive: [1] 0.088 | [2] 0.015 | [3] 0.03 | [4] 0.121 | [5] -0.481 | [6] 0.015 | [7] -0.082 | [8] 0.064 | [9] 0.044 | [10] -0.12

CAMK2G isoform 6 (UniProt Q13555)
inactive: [1] -0.018 | [2] 0.269 | [3] 0.039 | [4] -0.101 | [5] -0.173 | [6] -0.032 | [7] -0.006 | [8] -0.204 | [9] 0.12 | [10] 0.141

BSG (UniProt P35613)
inactive: [1] -0.043 | [2] 0.048 | [3] -0.053 | [4] 0.027 | [5] -0.081 | [6] 0.042 | [7] 0.042 | [8] 0.067 | [9] -0.051 | [10] 0.077

BUB1B isoform 3 (UniProt O60566)
inactive: [1] 0.038 | [2] 0.103 | [3] 0.014 | [4] -0.014 | [5] 0.005 | [6] 0.001 | [7] 0.032 | [8] -0.098 | [9] 0.006 | [10] 0.065

C12orf65 (UniProt Q9H3J6)
inactive: [1] -0.132 | [2] 0.082 | [3] 0.031 | [4] 0.131 | [5] -0.189 | [7] 0.003 | [8] -0.153

CAND2 (UniProt O75155)
inactive: [1] -0.169 | [2] -0.036 | [3] -0.007 | [4] 0.083 | [5] -0.12 | [6] 0.024 | [7] 0.01 | [8] 0.014 | [9] 0.012 | [10] -0.006

Looked up one by one from above, two records:
BUB1B isoform 3 (UniProt O60566)
inactive: [1] 0.038 | [2] 0.103 | [3] 0.014 | [4] -0.014 | [5] 0.005 | [6] 0.001 | [7] 0.032 | [8] -0.098 | [9] 0.006 | [10] 0.065

C12orf65 (UniProt Q9H3J6)
inactive: [1] -0.132 | [2] 0.082 | [3] 0.031 | [4] 0.131 | [5] -0.189 | [7] 0.003 | [8] -0.153

Remaining list, next part:

C11orf54 (UniProt Q9H0W9)
inactive: [1] 0.152 | [2] -0.012 | [3] 0.047 | [4] -0.037 | [5] -0.023 | [6] -0.03 | [7] -0.018 | [8] 0.023 | [9] -0.02 | [10] -0.004

CA1 (UniProt P00915)
inactive: [1] -0.022 | [2] -0.002 | [3] -0.006 | [4] -0.044 | [5] -0.032 | [6] -0.026 | [7] 0.022 | [8] 0.018 | [9] -0.045 | [10] 0.072

BTK isoform 2 (UniProt Q06187)
inactive: [1] -0.049 | [2] 0.367 | [3] 0.19 | [4] 0.081 | [5] -0.036 | [7] 0.012 | [8] -0.126 | [10] -0.078

CAPZA2 (UniProt P47755)
inactive: [1] 0.053 | [2] -0.048 | [3] 0.027 | [4] -0.06 | [5] -0.052 | [6] -0.009 | [7] -0.029 | [8] 0.039 | [9] 0.04 | [10] 0.032

CAMSAP1 isoform 3 (UniProt Q5T5Y3)
inactive: [1] 0.011 | [2] -0.015 | [3] 0.045 | [4] 0.091 | [5] 0.039 | [6] 0.169 | [7] -0.034 | [8] 0.056 | [9] 0.095 | [10] 0.118

CAPZA1 (UniProt P52907)
inactive: [1] 0.039 | [2] 0.006 | [3] 0.036 | [4] -0.04 | [5] -0.063 | [6] 0.02 | [7] -0.022 | [8] 0.029 | [9] -0.017 | [10] 0.027

CAB39 (UniProt Q9Y376)
inactive: [1] -0.04 | [2] -0.028 | [3] -0.007 | [4] -0.022 | [5] -0.039 | [6] 0.042 | [7] 0.009 | [8] 0.069 | [9] -0.034 | [10] 0.028

C9orf78 (UniProt Q9NZ63)
inactive: [1] -0.005 | [2] -0.022 | [3] -0.023 | [4] 0.006 | [5] -0.008 | [6] -0.016 | [7] 0.003 | [8] 0.008 | [9] -0.02 | [10] -0.042

C2CD2L (UniProt O14523)
inactive: [1] -0.011 | [2] -0.017 | [3] -0.016 | [4] 0.012 | [5] -0.074 | [6] -0.05 | [7] 0.016 | [8] 0.055 | [9] 0.007 | [10] 0.088

C2orf69 (UniProt Q8N8R5)
inactive: [1] 0.006 | [2] 0.027 | [3] -0.004 | [4] -0.141 | [5] -0.029 | [6] 0.001 | [7] 0.076 | [8] 0.016 | [9] -0.058 | [10] -0.002

C8orf76 (UniProt Q96K31)
inactive: [1] 0.026 | [2] 0.006 | [3] -0.006 | [4] 0.059 | [5] -0.026 | [6] -0.009 | [7] -0.014 | [8] 0.079 | [9] 0.058 | [10] -0.022

C19orf25 (UniProt Q9UFG5)
inactive: [1] 0.196 | [2] 0.052 | [3] 0.138 | [4] -0.042 | [5] -0.043 | [6] -0.071 | [7] -0.015 | [8] 0.081 | [9] -0.08 | [10] 0.095

CALM2 (UniProt P0DP24)
inactive: [1] 0.088 | [2] -0.062 | [3] -0.027 | [4] 0.01 | [5] -0.085 | [6] -0.033 | [7] -0.013 | [8] 0.042 | [9] 0.082 | [10] -0.024

Source: the supplement of paper PMC10849652
